{
  "source": "PubChem BioAssay AID1347076",
  "about": "(National Center for Advancing Translational Sciences (NCATS), 2019)",
  "note": "Hit rate of the full screen: of about 400,000 compounds, about 13,000 (3.2%) were called active. This list was built around the results that the source calls inconclusive (neither active nor inactive); the mix of calls is not that of the screen. Calls come from the whole dose curve; as a rule, active = well fitted cell-killing curve with a large enough effect; inconclusive = small, poorly fitted or top-dose-only effect, or effect the other way; inactive = flat fitted curve, though single readings scatter. A potency beside an inconclusive call is a rough fit, not a confirmed value. % is set by controls: 0 for no effect and ±100 for the full control effect; potency is the fitted concentration of half-maximal effect.",
  "data": [
    {"test": "qHTS assay for MDR1-selective chemotherapeutics: Primary screen using the drug-selected MDR subline cells KB-V1; note: nearly all actives have a fitted effect of over 60% in size", "conditions": "KB-V1 MDR cells viability, CellTiter-Glo, 72 h; activity change, negative = cytotoxicity: at 46.1 µM (top of the series)", "summary_of_the_method": "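KB-V1 cells (P-gp-expressing MDR subline of KB-3-1) in phenol-red-free DMEM with 10% FBS were exposed to library compounds over a concentration series for 72 h at 37 degrees C. Viability read by CellTiter-Glo luminescence; concentration-effect curves fitted after normalization.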", "values": [
      {"smiles": "Cc1ccc2nc(-c3c[nH]c4ccccc34)c(Nc3ccccc3C)n2c1", "Potency": "inconclusive: 29.1 µM [rising, single point]"},
      {"smiles": "O=C(NCCN1CCC(n2c(=O)[nH]c3ccccc32)CC1)c1c(F)cccc1F", "activity change, negative = cytotoxicity": "inconclusive: -28.9%"},
      {"smiles": "c1csc(Cn2c(-c3cccs3)nc3ccccc32)c1", "Potency": "active: 20.6 µM"},
      {"smiles": "N#Cc1cnc2nc1NCCCCCCC2", "Potency": "active: 5.17 µM"},
      {"smiles": "COc1ccc(N/C(C)=C/C(=O)c2ccccc2)cc1", "Potency": "inconclusive: 20.6 µM [cytotoxic, single point]"},
      {"smiles": "COc1cc(C)c(NC(=O)C(=S)NCc2ccccc2)cc1C", "Potency": "inconclusive: 29.1 µM [cytotoxic, single point]"},
      {"smiles": "Nc1nnc(SCC(=O)Nc2ccccc2)s1", "Potency": "inconclusive: 14.6 µM [rising, single point]"},
      {"smiles": "O=C(Nc1cnccn1)Nc1ccccc1Cl", "Potency": "active: 9.2 µM"},
      {"smiles": "COc1ccc(Cc2[nH]n3c(=O)cc(C(C)C)nc3c2-c2ccccc2)cc1", "activity change, negative = cytotoxicity": "inactive: 0%"},
      {"smiles": "O=C(c1cscn1)N1CCCC(N2CCN(c3ccc(F)cc3)CC2)C1", "note": "(centres undefined)", "Potency": "inconclusive: 18.4 µM [cytotoxic, partial curve, poor fit]"},
      {"smiles": "O=C(/C=C/c1ccc(Cl)cc1)NCCSc1ccccc1", "Potency": "inconclusive: 25.9 µM [cytotoxic, single point]"},
      {"smiles": "COc1ccc(N2CC(C)Cn3c2nc2c3c(=O)n(CCc3ccccc3)c(=O)n2C)cc1", "note": "(centres undefined)", "Potency": "inconclusive: 1.03 µM [cytotoxic, full curve, poor fit]"},
      {"smiles": "COc1cc(-c2cc3nc4ccccc4n3c(N)c2C#N)cc(OC)c1OC", "Potency": "inconclusive: 11.6 µM [cytotoxic, partial curve]"},
      {"smiles": "COC(=O)c1ccc(=O)c2nc3/c(=C/O)c(O)cc(=O)c3[nH]c12", "Potency": "inconclusive: 29.1 µM [cytotoxic, single point]"},
      {"smiles": "CCOC(=O)Cc1csc(NC(=O)c2ccc(S(=O)(=O)N3CCCC3)cc2)n1", "activity change, negative = cytotoxicity": "inactive: -1.67%"},
      {"smiles": "Cc1onc(-c2c(F)cccc2Cl)c1C(=O)NC(=S)NC1CCS(=O)(=O)C1", "note": "(centres undefined)", "Potency": "active: 23.1 µM"},
      {"smiles": "Cc1cc(C)c(Cn2c3ccccc3c3cnn(CC(=O)NCc4ccccn4)c(=O)c32)c(C)c1", "Potency": "inconclusive: 16.4 µM [cytotoxic, partial curve, poor fit]"},
      {"smiles": "CC(C)(C)c1ccc(C2(C)NC(=O)N(CC(=O)c3ccc[nH]3)C2=O)cc1", "note": "(centres undefined)", "Potency": "inconclusive: 18.4 µM [cytotoxic, partial curve, poor fit]"},
      {"smiles": "CN(C)S(=O)(=O)c1ccc(NC(=O)N2CCN(c3ccccc3Cl)CC2)cc1", "Potency": "inconclusive: 13 µM [cytotoxic, partial curve]"},
      {"smiles": "Cc1csc2ncnc(NNC(=O)c3ccc(Cl)cc3)c12", "Potency": "inconclusive: 5.8 µM [cytotoxic, partial curve]"},
      {"smiles": "O=C1NC(=O)/C(=C/c2ccc(-c3cccc([N+](=O)[O-])c3)o2)S1", "Potency": "inconclusive: 23.1 µM [cytotoxic, single point]"},
      {"smiles": "O=C(Nc1ncc([N+](=O)[O-])s1)C1CC(=O)N(c2ccc(F)cc2)C1", "note": "(centres undefined)", "activity change, negative = cytotoxicity": "inactive: 23%"},
      {"smiles": "Cc1sc2ncnc(SCC(=O)N3CCC(c4noc5ccc(F)cc45)CC3)c2c1C", "Potency": "active: 10.3 µM"},
      {"smiles": "CCOc1ccc(NC(=O)CN(C)C(=O)c2sccc2-c2ccccc2)cc1OCC", "Potency": "inconclusive: 5.17 µM [cytotoxic, full curve]"},
      {"smiles": "COc1ccccc1CCNC(=O)C(=O)NCC(c1cccs1)S(=O)(=O)c1ccccc1", "note": "(centres undefined)", "Potency": "inconclusive: 8.2 µM [cytotoxic, partial curve, poor fit]"},
      {"smiles": "CCc1ccccc1NC(=O)C1CCCN1S(=O)(=O)c1ccc2c(c1)n(C)c(=O)c(=O)n2C", "note": "(centres undefined)", "Potency": "inconclusive: 29.1 µM [rising, single point]"},
      {"smiles": "CCCCC(=O)N(c1ccc(C)c(C)c1)C1C=CS(=O)(=O)C1", "note": "(centres undefined)", "Potency": "inconclusive: 29.1 µM [cytotoxic, single point]"},
      {"smiles": "Cc1cc(Cc2ccc([N+](=O)[O-])cc2)c(C)cn1", "Potency": "inconclusive: 20.6 µM [cytotoxic, single point]"},
      {"smiles": "CCCCCCCCC[n+]1cccc2c3ccccc3ccc21", "Potency": "inconclusive: 29.1 µM [cytotoxic, single point]"},
      {"smiles": "CCc1ccc(CNC(=O)c2cnc3sc(N4CCCCC4)nn3c2=O)cc1", "Potency": "inconclusive: 29.1 µM [cytotoxic, single point]"},
      {"smiles": "N#Cc1nc(-c2ccco2)oc1N1CCC(Cc2ccccc2)CC1", "Potency": "inconclusive: 20.6 µM [cytotoxic, single point]"},
      {"smiles": "COc1cc(/C=C/CN2CCC(CO)(CC3CCCCO3)CC2)ccc1O", "note": "(centres undefined)", "Potency": "inconclusive: 14.6 µM [cytotoxic, partial curve, poor fit]"},
      {"smiles": "CC1=C(C(=O)N2CCCCCC2)CC(CC(=O)NC(c2ccccc2)c2ccccc2)C(=O)N1CCC1=CCCCC1", "note": "(centres undefined)", "Potency": "active: 16.4 µM"},
      {"smiles": "CCCCn1c(-c2cccnc2)n[nH]c1=S", "activity change, negative = cytotoxicity": "inactive: 0.437%"},
      {"smiles": "Cc1ccc(NC(=O)Cn2cnc3nc4c(cc3c2=O)CCCC4)cc1Cl", "activity change, negative = cytotoxicity": "inactive: -1.83%"},
      {"smiles": "CCc1ccc(S(=O)(=O)Nc2cccc(-c3ccc(N4CCC(C)CC4)nn3)c2)s1", "Potency": "inconclusive: 18.4 µM [cytotoxic, single point]"},
      {"smiles": "CCCS(=O)(=O)C(=C(Nc1ccccc1)Nc1ccccc1)S(=O)(=O)CCC", "Potency": "inconclusive: 4.11 µM [cytotoxic, full curve, poor fit]"},
      {"smiles": "CN1CCN(S(=O)(=O)c2ccc(Oc3cccc(C(F)(F)F)c3)nc2)CC1", "Potency": "inconclusive: 16.4 µM [cytotoxic, partial curve, poor fit]"},
      {"smiles": "COc1ccc(C(=O)Nc2ccc(OCc3cc(=O)n4ccsc4n3)cc2)cc1OC", "Potency": "inconclusive: 7.31 µM [rising, partial curve, poor fit]"},
      {"smiles": "COc1cc(CCC(=O)Nc2ccc(C)c(S(=O)(=O)N3CCCCCC3)c2)cc(OC)c1OC", "Potency": "active: 3.66 µM"},
      {"smiles": "Oc1ccc(Cl)cc1Nc1nc(NCC2CCCO2)c2ccccc2n1", "note": "(centres undefined)", "activity change, negative = cytotoxicity": "inactive: -22.7%"},
      {"smiles": "CCn1c(=O)cc(SCC(=O)NCc2ccccc2OC)c2ccccc21", "Potency": "inconclusive: 23.1 µM [cytotoxic, single point]"},
      {"smiles": "Cn1c(=O)n(C)c2cc([N+](=O)[O-])c(N3CCN(S(=O)(=O)c4ccccc4)CC3)cc21", "Potency": "active: 2.91 µM"},
      {"smiles": "O=C(c1ccc(Cl)cc1)N(c1ccccn1)C1CCCCC1", "Potency": "inconclusive: 18.4 µM [cytotoxic, partial curve]"},
      {"smiles": "O=C(NCc1cccnc1)C(=O)NCC(c1cccnc1)N1CCN(c2ccccc2F)CC1", "note": "(centres undefined)", "activity change, negative = cytotoxicity": "inactive: -2.68%"},
      {"smiles": "O=C1S/C(=C/c2ccc(N3CCOCC3)o2)C(=O)N1Cc1c(F)cccc1Cl", "activity change, negative = cytotoxicity": "inactive: 9.9%"},
      {"smiles": "O=C(/C=C/c1ccccc1Cl)Nc1ccccc1", "activity change, negative = cytotoxicity": "inactive: -0.854%"},
      {"smiles": "CCN(CC)c1cc(C)c(/C=C/c2ccnc3ccccc23)cc1C", "Potency": "inconclusive: 18.4 µM [cytotoxic, single point]"},
      {"smiles": "O=C(O[C@H]1[C@H](Cc2ccccc2)NS(=O)(=O)[C@H]2CC3C=C[C@]12O3)c1ccc(Br)cc1", "Potency": "inconclusive: 13 µM [cytotoxic, partial curve, poor fit]"},
      {"smiles": "CCOC(=O)c1sc2ccccc2c1S(=O)(=O)N1CCN(c2cccc(C)c2C)CC1", "activity change, negative = cytotoxicity": "inactive: -0.372%"},
      {"smiles": "CCOC(=O)c1sc2ccccc2c1S(=O)(=O)N1CCN(c2cccc(OC)c2)CC1", "Potency": "inconclusive: 20.6 µM [cytotoxic, single point]"},
      {"smiles": "Cc1ccc(-c2nnc(NCc3ccccc3)c3ccccc23)cc1", "activity change, negative = cytotoxicity": "inactive: -11.9%"},
      {"smiles": "CCn1cc(S(=O)(=O)Nc2cc(C)ccc2F)cn1", "activity change, negative = cytotoxicity": "inactive: -3.85%"},
      {"smiles": "COC(=O)Cn1nc(-c2ccccc2)n(-c2ccccc2)c1=S", "Potency": "inconclusive: 18.4 µM [rising, partial curve]"},
      {"smiles": "Cc1nn(-c2ccc(F)cc2)c(-n2cccc2)c1C(=O)NCCCN1CCN(c2cccc(Cl)c2)CC1", "Potency": "active: 10.3 µM"},
      {"smiles": "CSc1ccccc1C(=O)C1CCCN(Cc2cnn(-c3ccccc3)c2)C1", "note": "(centres undefined)", "Potency": "inconclusive: 14.6 µM [cytotoxic, partial curve, poor fit]"},
      {"smiles": "O=C(CSc1nnc(-c2ccccc2)o1)NCC1CCCCC1", "activity change, negative = cytotoxicity": "inactive: -21.2%"},
      {"smiles": "Cc1cc2sc3ccccc3c(=O)c2c(C)c1O", "Potency": "active: 18.4 µM"},
      {"smiles": "CN(Cc1nc2ccccc2c(=O)[nH]1)C(=O)c1cccc(S(=O)(=O)N2CCCC2)c1", "Potency": "inconclusive: 29.1 µM [rising, single point]"},
      {"smiles": "CCCOc1ccc(-c2nc(N)n[nH]2)cc1", "Potency": "inconclusive: 6.31 µM [rising, partial curve]"},
      {"smiles": "CCC1Sc2ccccc2N(CC(=O)NCc2ccccc2OC)C1=O", "note": "(centres undefined)", "Potency": "active: 20.6 µM"},
      {"smiles": "O=C(Nc1nnc(-c2ccco2)o1)c1ccc(S(=O)(=O)N2CCOCC2)cc1", "Potency": "inconclusive: 29.1 µM [cytotoxic, single point]"},
      {"smiles": "S=C(NNC(=S)NC1CC2C=CC1C2)NC1CC2C=CC1C2", "note": "(centres undefined)", "Potency": "inconclusive: 23.1 µM [cytotoxic, single point]"},
      {"smiles": "COc1ccc2[nH]c(=O)c(CNc3ccccc3OC)cc2c1", "Potency": "inconclusive: 5.8 µM [cytotoxic, full curve]"},
      {"smiles": "Cc1cc2nc(C)n(CCCNC(=O)Nc3cccc4ccccc34)c2cc1C", "Potency": "active: 16.4 µM"},
      {"smiles": "CCC(Cc1ccccc1)NC(=O)CCNS(=O)(=O)c1cc(Br)cnc1N", "note": "(centres undefined)", "Potency": "inconclusive: 2.31 µM [cytotoxic, full curve, poor fit]"},
      {"smiles": "CC(C)(C)OC(=O)n1cc(CCO)c2ccccc21", "Potency": "inconclusive: 23.1 µM [rising, single point]"},
      {"smiles": "O=C(COc1ccccc1)NCCSc1ccccc1", "Potency": "inconclusive: 18.4 µM [cytotoxic, partial curve]"},
      {"smiles": "COc1ccc(-c2nc(SCC(=O)c3ccc(OC)c(Br)c3)n[nH]2)cc1", "Potency": "inconclusive: 29.1 µM [cytotoxic, single point]"}
    ]}
  ]
}
